Inconclusive results, whose numbers are uncertain, are shown with a selection of clear calls. Potencies of inconclusive entries are doubtful fits and often do not repeat. Calls of active or inactive are those of the source. How the source made its calls: active means hit-call score of the fitted dose curve at least 0.9, where 1 is the maximum; inconclusive means response in the unintended direction; inactive means score below 0.9.
Tested on: chicken Androgen Receptor (AR), gene 422165
Test: ATG_chAR_XSP1: Attagene TRANS-FACTORIAL Multi-Species (XSP1) HepG2 Assay for chicken Androgen Receptor (AR) (AID 2283768)
Experimental: ATG_XSP1_multi-species_TRANS is a cell-based, multiplexed assay created by modifying the existing Attagene TRANS-FACTORIAL system to include a panel of nuclear receptors from some or all the following species: human (Homo sapiens), mouse (Mus musculus), frog (Xenopus laevis), zebrafish (Danio rerio), chicken (Gallus gallus), and turtle (Chrysemys picta). The ECOTOX-FACTORIAL format uses HepG2, a human liver cell line, with measurements taken at 24 hours after chemical dosing in a 24-well plate. Xsp1 included 3 nM 6-alpha-fluorotestosterone to partially stimulate the androgen receptor.ATG_chAR_XSP1 is one of 29 assay components measured or calculated from the ATG_XSP1_multi-species_TRANS assay. It is designed to make measurements of mRNA induction, a form of inducible reporter, as detected with fluorescence intensity signals by Reverse transcription polymerase chain reaction (RT-PCR) and Capillary electrophoresis technology.The assay endpoint ATG_chAR_XSP1 was analyzed in the positive analysis fitting direction relative to DMSO as the negative control and baseline of activity. Using a type of inducible reporter, measures of mRNA for gain-of-signal activity can be used to understand the reporter gene at the transcription factor-level as they relate to the gene AR. Furthermore, this assay endpoint can be referred to as a primary readout, because this assay has produced multiple assay endpoints where this one serves a reporter gene function. To generalize the intended target to other relatable targets, this assay endpoint is annotated to the nuclear receptor intended target family, where the subfamily is steroidal.
Human liver HepG2 cells are transiently transfected with multiple reporter transcription units (MRTUs) in 6-well plates using FuGene 6 reagent (Roche; 3 ml FuGene/1 mg DNA). The MRTU constructs are regulated by a cis-regulating element (promoter). […] A major difference between the CIS and TRANS system is that in CIS activities of endogenous TFs are measured, whereas the TRANS assay evaluates changes in activities of exogenous, chimeric NR-Gal4 proteins. […] At the end of 24 hour incubation, total RNA was isolated using TriZol reagent (Invitrogen). The isolated RNA is then reverse-transcribed using oligo(dT) primer and Mo-MLV reverse transcriptase (Invitrogen) with DNAse I (Ambion) treatment for 30 min. The one-tenth of the produced cDNA was amplified by PCR using Taq DNA polymerase (Invitrogen) and two reporter sequence-specific primers. The PCR products were fluorescently labeled by primer extension with 6-arboxyfluorescein (6-FAM) 5'-labeled reporter sequence-specific primer (2 min at 95 C, 20 s at 68 C and 10 min at 72 C) and these products were digested with 5U of HpaI (New England Biolabs) for 2h at 37 C. The fragments were purified using Qiaquick PCR columns (Qiagen), analyzed on an ABI 3130xL genetic analyzer (Applied Biosystems) with peak positions identified by using a set of X-rhodamine (ROX)-labeled MapMarker1000 molecular weight standards (BioVentures). The raw capillary electrophoresis data was processed using Attagraph software (Attagene).

Row | SMILES | AC50 | outcome
1 | CC/C(=C(\c1ccccc1)c1ccc(OCCN(C)C)cc1)c1ccccc1 | inconclusive: 5550 nM | 
2 | Cc1oc(-c2ccccc2)nc1CCOc1ccc(C[C@H](Nc2ccccc2C(=O)c2ccccc2)C(=O)O)cc1 | inconclusive: 100 nM | 
3 | C[C@]12CC[C@@H]3c4ccc(O)cc4CC[C@H]3[C@@H]1C[C@@H](O)[C@@H]2O | inconclusive: 171 nM | 
4 | CN(C)C(=N)N=C(N)N | inconclusive: 4680 nM | 
5 | C#C[C@]1(O)CC[C@H]2[C@@H]3CCc4cc(O)ccc4[C@H]3CC[C@@]21C | inconclusive: 50.8 nM | 
6 | CN(CCOc1ccc(CC2SC(=O)NC2=O)cc1)c1ccccn1 (configuration not stated) | inconclusive: 100 nM | 
7 | CC(C)(c1cc(Br)c(O)c(Br)c1)c1cc(Br)c(O)c(Br)c1 |  | inactive
8 | C[C@]12CC[C@@H]3c4ccc(O)cc4CC[C@H]3[C@@H]1CCC2=O | inconclusive: 100 nM | 
9 | CC(=O)O[C@]1(C(C)=O)CC[C@H]2[C@@H]3C=C(Cl)C4=CC(=O)[C@@H]5C[C@@H]5[C@]4(C)[C@H]3CC[C@@]21C | inconclusive: 151 nM | 
10 | CC/C(=C(/CC)c1ccc(O)cc1)c1ccc(O)cc1 | inconclusive: 100 nM | 
11 | CCCCC(CC)COC(=O)c1ccccc1C(=O)O (configuration not stated) | active: 26500 nM | 
12 | Oc1ccc(C(c2ccc(O)cc2)C(Cl)(Cl)Cl)cc1 | inconclusive: 10000 nM | 

Two successive records out of the list so far, quoted:
Row | SMILES | AC50 | outcome
3 | C[C@]12CC[C@@H]3c4ccc(O)cc4CC[C@H]3[C@@H]1C[C@@H](O)[C@@H]2O | inconclusive: 171 nM | 
4 | CN(C)C(=N)N=C(N)N | inconclusive: 4680 nM | 

From PubChem BioAssay (EPA / NIEHS)
